About 900 (2%) of roughly 46,000 compounds were called active. Inconclusive means that the source gave no clear call. Such entries were picked first, then a sample of the others. No stated cut-off is given here; in the data, active means ROS induction above about 79% (passing the limit was not always enough); inconclusive means no clear call, values can overlap the other calls.
Experiment: ROS inducers in U2OS cancer cells, primary screen, cell-based, H2DCF-DA fluorescence (AID 624156);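 further: 0% = DMSO vehicle median and 100% = reference compound median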
Conditions: at 10 µM, active compounds read high

For Cc1ccc(-c2nc(NC(=O)C(C(C)C)N3C(=O)c4ccccc4C3=O)sc2C)cc1 (centres undefined), which ROS induction (% of piperlongumine) is on record?
Its ROS induction (% of piperlongumine) is inconclusive: 80.5%.

Which ROS induction (% of piperlongumine) does the source give for COc1ccc(S(=O)(=O)N(C)C[C@@H]2OCCCC[C@@H](C)Oc3ccc(NS(=O)(=O)c4ccccc4)cc3C(=O)N([C@H](C)CO)C[C@@H]2C)cc1 here?
Its ROS induction (% of piperlongumine) is inconclusive: 77.5%.

For C[C@H]1CN([C@@H](C)CO)C(=O)c2cccc(NC(=O)c3cnccn3)c2O[C@@H]1CN(C)Cc1ccc(-c2ccccc2)cc1, which ROS induction (% of piperlongumine) is on record?
Its ROS induction (% of piperlongumine) is active: 118%.

For Cc1noc(C)c1NC(=O)N(C)C[C@H]1Oc2ccc(NC(=O)Nc3ccc(F)cc3)cc2C(=O)N([C@H](C)CO)C[C@@H]1C, which ROS induction (% of piperlongumine) is on record?
Its ROS induction (% of piperlongumine) is active: 81.6%.

With C[C@@H]1CN([C@H](C)CO)C(=O)Cc2cc(NC(=O)c3ccncc3)ccc2O[C@H]1CN(C)Cc1ccc(Oc2ccccc2)cc1 as the compound, how does the ROS induction (% of piperlongumine) read?
The ROS induction (% of piperlongumine) was active: 127%.

With CC(C)N(C(=O)NC(=O)c1csnn1)C(C)C as the compound, how does the ROS induction (% of piperlongumine) read?
Its ROS induction (% of piperlongumine) is inconclusive: 82.8%.

For CCCCC1CCC(C(=O)Nc2c3c(nn2-c2ccc(F)cc2)CS(=O)(=O)C3)CC1 (centres undefined), which ROS induction (% of piperlongumine) is on record?
The ROS induction (% of piperlongumine) was inactive: 6.9%.

With CC(=O)Nc1nonc1NC(=O)c1ccc(C)cc1 as the compound, how does the ROS induction (% of piperlongumine) read?
The ROS induction (% of piperlongumine) was inactive: 0.23%.

Which ROS induction (% of piperlongumine) does the source give for Cc1c(C)c(C)c(S(=O)(=O)N2CCCC2)c(C)c1C here?
Its ROS induction (% of piperlongumine) is inactive: -1.04%.

For C[C@@H]1CN([C@H](C)CO)C(=O)c2cc(NS(=O)(=O)c3ccc(F)cc3)ccc2O[C@H]1CN(C)Cc1ccc(C(=O)Nc2ccccc2N)cc1, which ROS induction (% of piperlongumine) is on record?
Its ROS induction (% of piperlongumine) is inactive: -5.9%.

For COc1ccc(NC(=O)C2CC(C)=C(C)CC2C(=O)O)c(N2CCOCC2)n1 (centres undefined), which ROS induction (% of piperlongumine) is on record?
The ROS induction (% of piperlongumine) was inconclusive: 78.5%.

For COc1ccc(C#Cc2cnc3c(c2)C(=O)N([C@H](C)CO)C[C@H](C)[C@H](CN(C)C(=O)NC2CCCCC2)O3)cc1OC, which ROS induction (% of piperlongumine) is on record?
Its ROS induction (% of piperlongumine) is active: 135%.

Which ROS induction (% of piperlongumine) does the source give for CN(C)C(=O)[C@]1(CCS(=O)(=O)c2ccccc2)N=C(c2ccc(OCCCO)cc2)O[C@@H]1c1ccccc1 here?
The ROS induction (% of piperlongumine) was active: 94.8%.

Which ROS induction (% of piperlongumine) does the source give for O=C1OCCN1/N=C/c1ccc([N+](=O)[O-])o1 here?
The ROS induction (% of piperlongumine) was inconclusive: 88.2%.

With CCN(CC)C(=S)Sc1ncnc2sc3c(c12)CCCC3 as the compound, how does the ROS induction (% of piperlongumine) read?
Its ROS induction (% of piperlongumine) is active: 91.9%.

With O=C(CN1C(=O)N(c2ccc(Cl)cc2)S(=O)(=O)c2ccccc21)N1CCCc2ccccc21 as the compound, how does the ROS induction (% of piperlongumine) read?
Its ROS induction (% of piperlongumine) is inactive: 36.9%.

With Cc1cccc(NC(=O)c2cc(NC(=O)C3CCCCC3C(=O)O)ccc2N2CCCCC2)c1 (centres undefined) as the compound, how does the ROS induction (% of piperlongumine) read?
The ROS induction (% of piperlongumine) was inconclusive: 82.2%.

Which ROS induction (% of piperlongumine) does the source give for C[C@H](CO)N1C[C@H](C)[C@H](CN(C)C(=O)Nc2ccccc2)Oc2ccc(NC(=O)Nc3ccc(C(F)(F)F)cc3)cc2C1=O here?
Its ROS induction (% of piperlongumine) is inactive: 48.1%.

With Cc1ccc(S(=O)(=O)Nc2ccc3c(c2)CC(=O)N([C@@H](C)CO)C[C@H](C)[C@H](CN(C)C(=O)Nc2ccc(F)cc2)O3)cc1 as the compound, how does the ROS induction (% of piperlongumine) read?
Its ROS induction (% of piperlongumine) is inactive: -1.64%.

Which ROS induction (% of piperlongumine) does the source give for Cc1ccc(S(=O)(=O)Nc2ccc3c(c2)C(=O)N([C@H](C)CO)C[C@H](C)[C@H](CN(C)S(=O)(=O)c2cccs2)O3)cc1 here?
Its ROS induction (% of piperlongumine) is inactive: 8.57%.

For CC1=CC(=O)C2C(C)(C)CC(O)CC2(C)C1(O)CO (centres undefined), which ROS induction (% of piperlongumine) is on record?
Its ROS induction (% of piperlongumine) is inconclusive: 96.4%.

For C=C1C(=O)O[C@H]2C1[C@H](OC(=O)/C(=C/CO)COC(=O)/C(C)=C/CO)CC(=C)[C@@H]1CC(=O)[C@@H](C)[C@@H]12 (some centres undefined), which ROS induction (% of piperlongumine) is on record?
The ROS induction (% of piperlongumine) was active: 87.2%.

For CC(C)NC(=O)Nc1ccc2c(c1)C(=O)N([C@H](C)CO)C[C@H](C)[C@@H](CN(C)Cc1ccc(-c3ccccc3)cc1)O2, which ROS induction (% of piperlongumine) is on record?
The ROS induction (% of piperlongumine) was inconclusive: 84.9%.

For C[C@@H]1CN([C@@H](C)CO)C(=O)c2cccc(NC(=O)c3nc4ccccc4s3)c2O[C@H]1CN(C)C(=O)Nc1cccc2ccccc12, which ROS induction (% of piperlongumine) is on record?
The ROS induction (% of piperlongumine) was inconclusive: 77.9%.

For COc1ccc(NC(=O)N(C)C[C@@H]2Oc3ccc(NS(=O)(=O)c4cccs4)cc3CC(=O)N([C@H](C)CO)C[C@H]2C)cc1, which ROS induction (% of piperlongumine) is on record?
Its ROS induction (% of piperlongumine) is inactive: 1.13%.

For C[C@H](CO)N1C[C@H](C)[C@@H](CN(C)Cc2ccc(Oc3ccccc3)cc2)Oc2c(NC(=O)Nc3ccccc3)cccc2C1=O, which ROS induction (% of piperlongumine) is on record?
The ROS induction (% of piperlongumine) was active: 101%.

For COc1cc(/C=C/C(=O)OC2CC3CCC2(C)C3(C)C)ccc1O (centres undefined), which ROS induction (% of piperlongumine) is on record?
Its ROS induction (% of piperlongumine) is inconclusive: 91.7%.

For COc1ccc(C#Cc2ccc3c(c2)[C@]2(C(=O)N3)[C@H](C(=O)N3CCc4cc(OC)c(OC)cc4C3)[C@H]3C(=O)O[C@H](c4ccccc4)[C@H](c4ccccc4)N3[C@@H]2c2ccc(OCCO)cc2)cc1, which ROS induction (% of piperlongumine) is on record?
Its ROS induction (% of piperlongumine) is inactive: 22.7%.

Which ROS induction (% of piperlongumine) does the source give for C[C@@H]1CCCCO[C@@H](CN(C)C(=O)Nc2cccc3ccccc23)[C@@H](C)CN([C@H](C)CO)C(=O)c2cc(NC(=O)CCCCCC(=O)Nc3ccccc3N)ccc2O1 here?
The ROS induction (% of piperlongumine) was inconclusive: 77.1%.

For COCCOC(=O)N1C(=O)[C@@]2(c3ccccc31)[C@H](c1ccccc1OCCO)N1[C@H](c3ccccc3)[C@H](c3ccccc3)OC(=O)[C@H]1[C@@H]2C(=O)N1CCc2cc(OC)c(OC)cc2C1, which ROS induction (% of piperlongumine) is on record?
The ROS induction (% of piperlongumine) was active: 214%.

With C[C@@H]1CN([C@H](C)CO)C(=O)c2cc(NS(=O)(=O)c3ccccc3)ccc2O[C@H]1CN(C)S(=O)(=O)c1ccccc1 as the compound, how does the ROS induction (% of piperlongumine) read?
Its ROS induction (% of piperlongumine) is inconclusive: 185%.

With CNC[C@H]1Oc2ccc(NC(=O)Nc3ccccc3)cc2C(=O)N([C@@H](C)CO)C[C@@H]1C as the compound, how does the ROS induction (% of piperlongumine) read?
The ROS induction (% of piperlongumine) was inconclusive: 318%.

Which ROS induction (% of piperlongumine) does the source give for C=C1C(=O)O[C@@H]2/C=C(/C)CC/C=C(/C=O)C[C@@H](OC(=O)CC(C)C)C12 (some centres undefined) here?
Its ROS induction (% of piperlongumine) is inconclusive: 81.4%.

With COc1ccc([Si](C)(C)[C@@H]2[C@@H](CCn3cc(CCO)nn3)O[C@]3(C(=O)N(c4ccccc4)c4ccccc43)[C@H]2C)cc1 as the compound, how does the ROS induction (% of piperlongumine) read?
The ROS induction (% of piperlongumine) was inconclusive: 95.8%.

For C[C@@H]1CN([C@H](C)CO)C(=O)CCCn2nncc2CO[C@@H]1CN(C)Cc1ccccc1, which ROS induction (% of piperlongumine) is on record?
The ROS induction (% of piperlongumine) was inactive: 8.61%.

With C[C@@H]1CCCCO[C@@H](CN(C)S(=O)(=O)c2ccccc2)[C@@H](C)CN([C@H](C)CO)C(=O)c2cc(NS(=O)(=O)c3ccc(F)cc3)ccc2O1 as the compound, how does the ROS induction (% of piperlongumine) read?
The ROS induction (% of piperlongumine) was active: 206%.

With O=C(c1ccccc1Cl)n1nc(-c2ccccc2)nc1NCc1ccco1 as the compound, how does the ROS induction (% of piperlongumine) read?
The ROS induction (% of piperlongumine) was inconclusive: 121%.

For C[C@H](CO)N1C[C@H](C)[C@H](CN(C)Cc2ccc(C(F)(F)F)cc2)Oc2ccc(NC(=O)Cn3cnnn3)cc2C1=O, which ROS induction (% of piperlongumine) is on record?
The ROS induction (% of piperlongumine) was inactive: 1.44%.

With C[C@H](CO)N1C[C@H](C)[C@@H](CN(C)Cc2ccc(Oc3ccccc3)cc2)Oc2ccc(NS(=O)(=O)c3ccccc3)cc2C1=O as the compound, how does the ROS induction (% of piperlongumine) read?
Its ROS induction (% of piperlongumine) is inconclusive: 82.9%.

Source: PubChem BioAssay AID624156 (Broad Institute, 2012)
